# Measured values published in the supplement of paper PMC11732987, “Enantioselective OTUD7B fragment discovery through chemoproteomics screening and high-throughput optimisation” (Communications Chemistry, 2025).
# Sequences of proteins named here, by UniProt entry; tags and fusion partners are left off. A change or cut given only in a name is not applied to a line headed by its entry. Residues count along the entry.
# UniProt P30041: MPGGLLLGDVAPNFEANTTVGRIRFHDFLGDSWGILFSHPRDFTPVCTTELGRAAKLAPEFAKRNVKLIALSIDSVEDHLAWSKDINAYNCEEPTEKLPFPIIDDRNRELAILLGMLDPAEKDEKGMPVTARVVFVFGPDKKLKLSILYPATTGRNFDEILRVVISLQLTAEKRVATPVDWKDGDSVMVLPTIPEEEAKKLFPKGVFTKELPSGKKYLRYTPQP
# UniProt O43663, 75-101: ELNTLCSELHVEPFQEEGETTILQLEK
# UniProt Q5H9R7, 195-220: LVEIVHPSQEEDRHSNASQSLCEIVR
# UniProt O14802: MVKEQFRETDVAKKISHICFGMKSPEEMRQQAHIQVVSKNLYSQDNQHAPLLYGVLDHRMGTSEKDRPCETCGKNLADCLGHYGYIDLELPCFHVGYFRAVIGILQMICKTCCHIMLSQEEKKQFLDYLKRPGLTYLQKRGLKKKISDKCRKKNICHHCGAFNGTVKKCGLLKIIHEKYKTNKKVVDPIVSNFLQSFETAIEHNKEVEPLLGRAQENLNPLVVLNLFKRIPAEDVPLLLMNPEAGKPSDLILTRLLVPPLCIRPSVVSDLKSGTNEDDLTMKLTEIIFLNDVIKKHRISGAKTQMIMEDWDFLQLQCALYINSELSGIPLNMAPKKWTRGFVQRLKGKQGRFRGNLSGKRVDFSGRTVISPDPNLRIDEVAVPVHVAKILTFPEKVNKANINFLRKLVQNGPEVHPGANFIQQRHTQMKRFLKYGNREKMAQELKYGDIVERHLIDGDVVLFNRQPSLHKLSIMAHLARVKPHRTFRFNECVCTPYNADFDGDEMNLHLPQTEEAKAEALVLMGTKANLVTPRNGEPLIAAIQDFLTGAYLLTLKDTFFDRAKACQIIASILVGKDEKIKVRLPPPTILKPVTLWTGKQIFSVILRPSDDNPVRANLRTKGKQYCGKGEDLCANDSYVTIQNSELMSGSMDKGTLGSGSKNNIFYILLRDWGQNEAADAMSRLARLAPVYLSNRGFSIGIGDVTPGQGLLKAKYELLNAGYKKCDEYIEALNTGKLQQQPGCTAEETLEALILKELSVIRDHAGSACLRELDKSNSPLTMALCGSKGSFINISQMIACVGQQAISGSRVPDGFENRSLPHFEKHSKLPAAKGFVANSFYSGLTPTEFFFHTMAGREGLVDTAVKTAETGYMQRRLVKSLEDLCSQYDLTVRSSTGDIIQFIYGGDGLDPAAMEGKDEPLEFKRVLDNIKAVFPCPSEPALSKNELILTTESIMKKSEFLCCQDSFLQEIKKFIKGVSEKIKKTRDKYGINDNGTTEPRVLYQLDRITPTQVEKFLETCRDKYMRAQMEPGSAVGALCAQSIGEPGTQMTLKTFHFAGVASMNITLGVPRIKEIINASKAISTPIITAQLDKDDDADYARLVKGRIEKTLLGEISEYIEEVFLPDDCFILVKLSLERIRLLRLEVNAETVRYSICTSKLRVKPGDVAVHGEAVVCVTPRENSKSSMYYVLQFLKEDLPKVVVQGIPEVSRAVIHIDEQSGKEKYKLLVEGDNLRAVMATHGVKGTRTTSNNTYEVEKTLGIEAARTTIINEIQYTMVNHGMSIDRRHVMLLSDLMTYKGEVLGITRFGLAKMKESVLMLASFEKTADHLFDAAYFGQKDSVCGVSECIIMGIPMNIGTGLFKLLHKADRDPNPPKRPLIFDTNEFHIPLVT
# UniProt P78527, whole entry, looked up: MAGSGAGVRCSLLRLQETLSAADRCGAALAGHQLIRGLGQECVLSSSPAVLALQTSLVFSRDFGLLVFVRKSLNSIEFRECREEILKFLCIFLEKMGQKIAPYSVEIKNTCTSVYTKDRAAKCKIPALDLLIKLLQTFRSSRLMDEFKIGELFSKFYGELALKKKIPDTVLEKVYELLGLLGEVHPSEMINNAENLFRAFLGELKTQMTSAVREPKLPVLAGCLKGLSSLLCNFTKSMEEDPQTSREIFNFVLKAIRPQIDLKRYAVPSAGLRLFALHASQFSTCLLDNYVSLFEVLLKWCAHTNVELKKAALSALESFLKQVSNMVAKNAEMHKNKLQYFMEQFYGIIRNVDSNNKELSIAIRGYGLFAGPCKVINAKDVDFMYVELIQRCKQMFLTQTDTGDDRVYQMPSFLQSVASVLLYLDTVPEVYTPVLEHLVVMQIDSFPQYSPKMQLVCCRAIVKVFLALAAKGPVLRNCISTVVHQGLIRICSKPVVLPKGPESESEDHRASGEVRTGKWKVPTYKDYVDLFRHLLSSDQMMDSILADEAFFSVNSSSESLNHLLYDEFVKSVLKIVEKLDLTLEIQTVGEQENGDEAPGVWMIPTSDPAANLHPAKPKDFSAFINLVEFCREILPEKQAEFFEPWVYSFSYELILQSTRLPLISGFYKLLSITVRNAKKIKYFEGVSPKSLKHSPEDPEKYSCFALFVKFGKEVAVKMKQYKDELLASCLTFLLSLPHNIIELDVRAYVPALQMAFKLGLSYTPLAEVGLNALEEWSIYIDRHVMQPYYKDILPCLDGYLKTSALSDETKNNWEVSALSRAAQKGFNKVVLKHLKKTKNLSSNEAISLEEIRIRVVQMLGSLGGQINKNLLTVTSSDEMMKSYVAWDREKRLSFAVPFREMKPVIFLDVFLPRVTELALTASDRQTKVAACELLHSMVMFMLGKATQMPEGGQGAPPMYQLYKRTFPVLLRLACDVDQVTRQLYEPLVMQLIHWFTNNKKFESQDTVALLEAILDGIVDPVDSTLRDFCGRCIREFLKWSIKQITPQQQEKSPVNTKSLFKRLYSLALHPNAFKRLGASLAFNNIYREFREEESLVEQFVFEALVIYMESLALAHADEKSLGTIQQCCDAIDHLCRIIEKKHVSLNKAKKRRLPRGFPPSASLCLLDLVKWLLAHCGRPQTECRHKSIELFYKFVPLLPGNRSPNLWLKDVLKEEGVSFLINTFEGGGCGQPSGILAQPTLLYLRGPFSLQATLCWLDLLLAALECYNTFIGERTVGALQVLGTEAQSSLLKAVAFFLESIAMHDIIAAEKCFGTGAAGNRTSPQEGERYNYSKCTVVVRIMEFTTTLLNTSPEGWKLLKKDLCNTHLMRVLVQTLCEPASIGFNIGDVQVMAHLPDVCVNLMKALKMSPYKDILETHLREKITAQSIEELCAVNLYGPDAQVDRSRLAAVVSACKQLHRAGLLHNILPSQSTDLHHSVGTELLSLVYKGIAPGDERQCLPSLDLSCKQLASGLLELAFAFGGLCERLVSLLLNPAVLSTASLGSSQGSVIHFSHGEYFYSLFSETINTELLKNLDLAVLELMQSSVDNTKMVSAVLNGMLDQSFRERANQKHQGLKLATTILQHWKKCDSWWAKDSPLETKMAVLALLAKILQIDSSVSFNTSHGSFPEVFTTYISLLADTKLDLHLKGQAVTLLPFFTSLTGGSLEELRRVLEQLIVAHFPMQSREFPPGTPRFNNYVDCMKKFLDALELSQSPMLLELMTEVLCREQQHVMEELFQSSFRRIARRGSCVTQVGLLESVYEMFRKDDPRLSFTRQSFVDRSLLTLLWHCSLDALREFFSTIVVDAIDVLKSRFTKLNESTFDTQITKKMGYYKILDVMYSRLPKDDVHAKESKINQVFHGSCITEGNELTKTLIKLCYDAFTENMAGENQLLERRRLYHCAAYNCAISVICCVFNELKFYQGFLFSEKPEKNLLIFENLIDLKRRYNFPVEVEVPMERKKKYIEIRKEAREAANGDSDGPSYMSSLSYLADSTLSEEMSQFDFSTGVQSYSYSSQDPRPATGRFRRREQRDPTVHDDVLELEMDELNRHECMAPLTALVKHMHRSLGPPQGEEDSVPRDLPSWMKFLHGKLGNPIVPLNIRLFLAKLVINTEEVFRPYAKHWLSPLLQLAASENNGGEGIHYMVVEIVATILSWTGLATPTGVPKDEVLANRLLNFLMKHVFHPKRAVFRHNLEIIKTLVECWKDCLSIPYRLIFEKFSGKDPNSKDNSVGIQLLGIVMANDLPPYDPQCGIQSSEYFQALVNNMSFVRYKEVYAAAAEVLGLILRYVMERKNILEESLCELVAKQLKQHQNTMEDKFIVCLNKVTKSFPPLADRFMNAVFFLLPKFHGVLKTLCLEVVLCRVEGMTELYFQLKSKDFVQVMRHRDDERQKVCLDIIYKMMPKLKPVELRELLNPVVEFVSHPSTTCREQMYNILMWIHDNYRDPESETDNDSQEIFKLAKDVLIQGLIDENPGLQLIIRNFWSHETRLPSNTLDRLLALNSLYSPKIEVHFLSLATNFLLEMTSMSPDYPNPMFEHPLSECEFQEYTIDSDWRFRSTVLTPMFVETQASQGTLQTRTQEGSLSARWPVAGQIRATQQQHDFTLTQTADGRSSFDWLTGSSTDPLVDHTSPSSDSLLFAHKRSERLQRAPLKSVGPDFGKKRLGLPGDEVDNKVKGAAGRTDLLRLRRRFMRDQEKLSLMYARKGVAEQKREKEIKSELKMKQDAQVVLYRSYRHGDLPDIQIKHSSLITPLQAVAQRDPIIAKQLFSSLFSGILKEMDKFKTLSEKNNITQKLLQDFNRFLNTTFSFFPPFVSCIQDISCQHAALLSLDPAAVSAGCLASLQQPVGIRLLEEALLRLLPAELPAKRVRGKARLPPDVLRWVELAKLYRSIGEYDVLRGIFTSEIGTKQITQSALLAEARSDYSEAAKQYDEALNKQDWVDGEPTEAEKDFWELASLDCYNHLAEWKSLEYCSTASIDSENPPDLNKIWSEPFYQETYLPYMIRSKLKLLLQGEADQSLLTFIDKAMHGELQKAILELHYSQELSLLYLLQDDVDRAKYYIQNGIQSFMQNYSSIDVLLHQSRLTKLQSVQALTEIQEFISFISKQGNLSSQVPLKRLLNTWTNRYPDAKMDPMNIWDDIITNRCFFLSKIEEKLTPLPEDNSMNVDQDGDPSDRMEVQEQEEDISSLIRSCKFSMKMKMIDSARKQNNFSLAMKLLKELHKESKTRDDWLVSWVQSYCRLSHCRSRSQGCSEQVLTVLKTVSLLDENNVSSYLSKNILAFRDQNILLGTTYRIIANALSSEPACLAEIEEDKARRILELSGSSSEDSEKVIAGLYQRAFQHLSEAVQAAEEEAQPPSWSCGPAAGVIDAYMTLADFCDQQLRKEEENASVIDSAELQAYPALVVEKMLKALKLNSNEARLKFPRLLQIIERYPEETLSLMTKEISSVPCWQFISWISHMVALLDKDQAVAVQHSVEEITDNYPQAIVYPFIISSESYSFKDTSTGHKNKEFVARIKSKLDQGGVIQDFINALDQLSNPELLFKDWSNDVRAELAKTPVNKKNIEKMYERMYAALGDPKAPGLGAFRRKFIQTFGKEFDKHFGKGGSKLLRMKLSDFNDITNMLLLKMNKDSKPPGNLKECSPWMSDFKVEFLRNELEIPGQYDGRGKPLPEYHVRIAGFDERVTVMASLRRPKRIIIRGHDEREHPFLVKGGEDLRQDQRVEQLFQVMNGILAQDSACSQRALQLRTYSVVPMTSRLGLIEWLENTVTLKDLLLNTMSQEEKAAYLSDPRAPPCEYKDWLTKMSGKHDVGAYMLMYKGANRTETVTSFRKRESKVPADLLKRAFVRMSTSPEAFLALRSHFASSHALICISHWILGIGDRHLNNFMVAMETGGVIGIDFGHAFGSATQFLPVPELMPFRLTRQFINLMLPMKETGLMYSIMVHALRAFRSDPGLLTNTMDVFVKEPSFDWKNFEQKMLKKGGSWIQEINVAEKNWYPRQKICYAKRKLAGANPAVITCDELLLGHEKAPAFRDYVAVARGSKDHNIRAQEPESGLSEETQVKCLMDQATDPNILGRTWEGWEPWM
# UniProt Q9H2U2: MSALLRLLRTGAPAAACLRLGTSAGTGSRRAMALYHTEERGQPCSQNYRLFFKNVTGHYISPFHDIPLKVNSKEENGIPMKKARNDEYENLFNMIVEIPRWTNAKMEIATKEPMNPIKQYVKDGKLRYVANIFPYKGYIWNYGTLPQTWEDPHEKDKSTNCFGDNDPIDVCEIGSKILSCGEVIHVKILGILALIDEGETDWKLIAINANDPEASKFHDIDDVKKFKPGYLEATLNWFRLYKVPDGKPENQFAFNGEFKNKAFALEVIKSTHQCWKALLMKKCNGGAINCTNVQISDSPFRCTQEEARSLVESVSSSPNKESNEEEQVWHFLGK
# UniProt Q66LE6: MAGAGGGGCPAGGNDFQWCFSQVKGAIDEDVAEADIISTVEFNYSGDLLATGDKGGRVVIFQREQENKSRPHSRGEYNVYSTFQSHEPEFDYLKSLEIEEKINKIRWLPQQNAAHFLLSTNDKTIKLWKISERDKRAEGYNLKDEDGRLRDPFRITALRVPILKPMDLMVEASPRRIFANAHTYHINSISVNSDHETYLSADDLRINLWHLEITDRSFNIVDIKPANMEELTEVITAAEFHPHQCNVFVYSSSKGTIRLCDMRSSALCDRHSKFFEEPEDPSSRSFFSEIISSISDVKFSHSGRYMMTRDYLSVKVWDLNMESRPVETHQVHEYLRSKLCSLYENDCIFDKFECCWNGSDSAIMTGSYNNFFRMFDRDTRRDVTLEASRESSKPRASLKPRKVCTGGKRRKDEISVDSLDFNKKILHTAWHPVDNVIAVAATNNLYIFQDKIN
# The list shows a part of the results. The data scatter; read single values as rough.
# What was measured:
# [1] = compound: ClCC(=O)N[C@@H]1CCCc2ccccc12; experiment: log2 mean competition ratio of IA-DTB cysteine labelling (DMSO/compound) (log2 ratio); higher = stronger cysteine engagement by compound; conditions: treatment time: 4 h, cell line lysate: HEK293T
# Experimental: (§1)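 IA-DTB competitive cysteine chemoproteomics in HEK293T RIPA lysate. Lysates were treated with compound 29 or 30 at 50 or 200 µM for 4 h, then IA-DTB (500 µM, 1 h), trypsin-digested, NeutrAvidin-enriched and analysed by diaPASEF. Competition ratio = intensity DMSO / intensity compound (n=4 treated, n=64 DMSO); binding: mean log2 CR ≥ 1 and p ≤ 0.05 plus QC filters. Target is the cysteine site.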
# [2] = compound: ClCC(=O)N[C@H]1CCCc2ccccc12; experiment: as above; conditions: treatment time: 4 h, cell line lysate: HEK293T
# Experimental: as §1
Target,log2 mean competition ratio ([1]; 50 µM),log2 mean competition ratio ([1]; 200 µM),log2 mean competition ratio ([2]; 50 µM),log2 mean competition ratio ([2]; 200 µM)
PPP6R2 C870 (UniProt O75170),-0.19,0.202,-0.122,0.298
POLR2A C641,-0.0741,0.467,-0.134,0.37
PRPF6 C901 (UniProt O94906),-0.107,0.0585,-0.134,0.0744
PRDX6 C91 (UniProt P30041),0.932,0.31,1.12,0.336
PRDX5 C204 (UniProt P30044),-0.216,-0.947,0.0722,-0.437
PRKAR2B C373 (UniProt P31323),0.286,0.495,0.468,0.0254
PRKAR2B C211 (UniProt P31323),-0.0196,0.173,-0.136,0.15
POLR2B C221 (UniProt P30876),-0.0644,0.0906,0.00766,0.138
PRPS2 C165 (UniProt P11908),-0.0659,-0.392,-0.166,-0.302
PPIP5K2 C615,-0.0379,-0.0158,0.493,-0.211
PRC1 C236 (UniProt O43663),-0.0457,-0.4,-0.204,-0.273
PRKRA C163 (UniProt O75569),0.0116,0.0424,0.448,0.196
PPAT C496 (UniProt Q06203),0.0557,0.0196,-0.19,-0.0439
PPME1 C238 (UniProt Q9Y570),-0.31,0.081,-0.289,0.0681
PRMT6 C221 (UniProt Q96LA8),0.482,0.409,0.448,0.443
POM121 C217 (UniProt Q96HA1),0.0121,0.266,0.176,0.351
PPP6R3 C836 (UniProt Q5H9R7),-0.0432,0.581,-0.0526,0.589
PRKCSH C471,-0.0703,0.127,-0.237,0.111
PPFIA1 C738 (UniProt Q13136),-0.175,-0.00424,-0.226,-0.0171
PPP6R2 C511 (UniProt O75170),-0.0532,-0.3,-0.245,0.0645
POM121 C307 (UniProt Q96HA1),-0.203,0.279,0.0513,0.179
POLR3C C160 (UniProt Q9BUI4),-0.333,-0.0981,0.139,-0.202
PPP2R1A C174 (UniProt P30153),-0.137,-0.191,-0.0524,-0.125
PRKAG1 C38 (UniProt P54619),-0.143,0.0635,-0.261,0.027
POLRMT C765 (UniProt O00411),0.19,-0.0606,0.0588,0.0123

Target,log2 mean competition ratio ([1]; 50 µM),log2 mean competition ratio ([1]; 200 µM),log2 mean competition ratio ([2]; 50 µM),log2 mean competition ratio ([2]; 200 µM)
POLR3A C565 (UniProt O14802),0.161,0.0133,-0.247,-0.258
PRDM6 C168,-0.263,-0.204,-0.157,0.113
PRC1 C531 (UniProt O43663),0.295,0.195,0.364,0.197
PPIP5K2 C729,-0.0611,-0.341,-0.448,-0.211
PRKDC C1629 (UniProt P78527),0.198,-0.306,0.117,-0.0457
PPP2R1A C377 (UniProt P30153),-0.0251,0.0207,0.0418,0.138
POLR2A C233,0.674,-0.0244,0.663,0.0528
PRKCD C509 (UniProt Q05655),0.281,-0.12,-0.0457,-0.0639
PPP5C C404 (UniProt P53041),-0.248,0.0314,-0.289,0.00114
PPP4R2 C134 (UniProt Q9NY27),-0.0579,-0.288,0.0916,-0.194
PRKDC C81 (UniProt P78527),-0.0803,-0.154,-0.0916,-0.228
PRDX6 C47 (UniProt P30041),-1.29,-1.36,-1.2,-1.2
PPP1CC;PPP1CA C140;(C140),-0.211,-0.112,-0.201,-0.0708
PPP4R1 C174 (UniProt Q8TF05),0.066,-0.217,0.132,0.0561
PPP2CA C133,-0.418,0.144,0.534,0.213
PPP6R3 C500 (UniProt Q5H9R7),0.56,0.272,-0.165,0.0922
PPFIBP1 C926 (UniProt Q86W92),-0.212,-0.0686,-0.109,-0.016
POLR3A C1154 (UniProt O14802),-0.0106,-0.144,0.162,-0.0713
PRKD2 C217,-0.257,0.115,-0.0559,0.0131
PRKCB C386 (UniProt P05771),-0.689,0.0409,-0.28,-0.231
PRKDC C974 (UniProt P78527),-0.0371,-0.052,-0.299,0.0262
PRMT7 C262 (UniProt Q9NVM4),-0.00381,-0.0286,0.087,-0.0261
POLR2B C892 (UniProt P30876),-0.0358,0.0725,-0.152,0.203
PRDX4 C51 (UniProt Q13162),-0.129,0.117,0.621,-0.0596
POLR2C C107 (UniProt P19387),-0.234,0.0899,-0.0662,0.265

# A few values from above:
# In log2 mean competition ratio ([1]; 50 µM), PRKDC C1629 (UniProt P78527) shows 0.198
# In log2 mean competition ratio ([2]; 50 µM), PPFIBP1 C926 (UniProt Q86W92) shows -0.109
# In log2 mean competition ratio ([2]; 50 µM), PPP4R2 C134 (UniProt Q9NY27) shows 0.0916
# In log2 mean competition ratio ([1]; 200 µM), PPP1CC;PPP1CA C140;(C140) shows -0.112

# Going on with the list:

Target,log2 mean competition ratio ([1]; 50 µM),log2 mean competition ratio ([1]; 200 µM),log2 mean competition ratio ([2]; 50 µM),log2 mean competition ratio ([2]; 200 µM)
PPP6R3 C216 (UniProt Q5H9R7),-0.171,0.261,-0.544,0.118
PRPF6 C698 (UniProt O94906),-0.0131,-0.219,0.00624,-0.0766
PPCDC C166 (UniProt Q96CD2),0.0636,-0.156,-0.367,-0.0291
PPM1G C164 (UniProt O15355),0.585,-0.537,0.516,-0.417
PPP4C C52 (UniProt P60510),0.0448,0.0434,-0.147,-0.174
POLR3E C676 (UniProt Q9NVU0),0.0859,-0.0817,-0.444,0.0639
PPIL1 C133 (UniProt Q9Y3C6),0.453,-0.081,0.202,-0.00257
PPP2R2A C398,0.0484,-0.436,0.215,-0.432
PPFIA3 C250 (UniProt O75145),-0.132,-0.554,0.42,-0.173
PRC1 C80 (UniProt O43663),-0.65,-0.166,-0.109,0.227
PPP1R3D C41 (UniProt O95685),0.366,0.0229,0.421,-0.14
PPA2 C17 (UniProt Q9H2U2),-0.00597,0.151,-0.161,-0.0838
PRKAB2 C178 (UniProt O43741),-0.00527,0.216,0.00198,0.279
POLR3C C79 (UniProt Q9BUI4),0.0103,-0.137,0.227,-0.171
PRPF8 C435 (UniProt Q6P2Q9),-0.116,0.0618,-0.156,0.0312
POP1 C745 (UniProt Q99575),-0.134,0.0217,0.207,0.0626
PPP2R2D C268 (UniProt Q66LE6),-0.131,-0.0423,0.0674,-0.0978
PPP4R1 C198 (UniProt Q8TF05),0.0265,-0.147,0.135,0.352
PPA2 C274 (UniProt Q9H2U2),0.111,-0.314,0.348,-0.293
PPIH C131 (UniProt O43447),0.022,0.298,-0.0129,0.425
PRPS2 C91 (UniProt P11908),-0.0833,-0.199,-0.123,-0.0708
PPA2 C180 (UniProt Q9H2U2),-0.0702,-0.0364,-0.234,-0.0657
POLR3A C742 (UniProt O14802),0.2,0.0847,0.0168,0.16
PRMT9 C683 (UniProt Q6P2P2),0.038,0.159,-0.0722,0.112
PRKDC C2435 (UniProt P78527),-0.19,-0.0917,0.314,0.0308

Target,log2 mean competition ratio ([1]; 50 µM),log2 mean competition ratio ([1]; 200 µM),log2 mean competition ratio ([2]; 50 µM),log2 mean competition ratio ([2]; 200 µM)
PPIP5K2 C779,-0.112,-0.412,0.355,-0.0722
PPP2R5D C484 (UniProt Q14738),-0.0997,-0.192,-0.36,-0.163
PRPF4 C299 (UniProt O43172),-0.219,-0.0818,-0.213,-0.0342
POLR3A C767 (UniProt O14802),0.075,0.0201,0.113,-0.0119
PRPF38B C113 (UniProt Q5VTL8),0.0166,0.11,-0.0404,0.131
POLR3A C724 (UniProt O14802),0.00708,0.437,0.143,0.143
PRKCQ C322 (UniProt Q04759),-0.0918,-0.15,-0.166,-0.116
PRKDC C795 (UniProt P78527),0.123,0.0345,-0.0609,0.215
PRKDC C2469 (UniProt P78527),0.131,0.201,-0.251,0.248
PRKDC C111 (UniProt P78527),0.000267,-0.0129,-0.00579,0.0392
PRPS1 C265,0.00111,-0.268,0.773,-0.402
PPFIBP2 C361 (UniProt Q8ND30),-0.0792,-0.0366,-0.311,-0.0564
POLR2M C65,-0.148,0.237,-0.201,0.319
PPP1CC;PPP1CA C127;(C127),0.121,-0.11,0.119,-0.000287
PRKAR1A C362 (UniProt P10644),0.194,-0.0122,-0.0653,-0.104
PPA1 C254 (UniProt Q15181),-0.297,-0.00563,-0.326,0.0426
POLR2B C837 (UniProt P30876),-0.0448,0.182,-0.0192,0.207
PPP6R1 C455 (UniProt Q9UPN7),-0.163,-0.0403,-0.666,-0.108
POLR2A C1287,-0.156,0.051,0.365,-0.278
PRPF6 C522 (UniProt O94906),0.288,-0.0434,0.26,0.0862
PRKCQ C540 (UniProt Q04759),-0.416,-0.412,-0.43,-0.000368
PPP2R3C C17 (UniProt Q969Q6),0.00982,0.142,0.105,0.172
